The list shows a part of the results.
Key:
Assay in all cases: log2 fold change, soluble protein after heating vs DMSO (PISA); higher = thermal stabilisation; K562 lysate, 10 uM; active = over 0.2 and 3.5 SD of the protein, either way, in both replicates (recomputed)
[1] = compound: NCC(=O)Nc1ccc(-n2nc(C(F)(F)F)cc2-c2ccc3c(ccc4ccccc43)c2)cc1
In short: (§1)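 Pellets of K562 cells were dounce-homogenised in PBS pH 7.4 with 1 mM MgCl2, and the crude extract was held at 1 mg/mL protein for a 30 min treatment with 10 μM compound. Aliquots were heated for 3 min over 48°C-58°C and pooled before NP-40 was added to 0.5% at 4°C. The supernatant from 21,000xg for 90 min was quantified by TMTpro 16plex LC-MS/MS with channel sums equalised. Values are reported from duplicates as log-two fold change in thermal stability relative to solvent controls.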

The chains behind the UniProt entries cited, without tags or fusion partners. Where a name states a change or a piece, a line headed by the entry shows the natural chain unless it says otherwise.
UniProt Q8WVK2: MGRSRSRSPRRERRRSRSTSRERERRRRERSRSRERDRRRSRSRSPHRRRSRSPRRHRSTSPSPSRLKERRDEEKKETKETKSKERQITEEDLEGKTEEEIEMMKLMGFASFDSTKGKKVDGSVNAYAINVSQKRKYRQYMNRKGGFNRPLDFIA
UniProt Q9UQE7: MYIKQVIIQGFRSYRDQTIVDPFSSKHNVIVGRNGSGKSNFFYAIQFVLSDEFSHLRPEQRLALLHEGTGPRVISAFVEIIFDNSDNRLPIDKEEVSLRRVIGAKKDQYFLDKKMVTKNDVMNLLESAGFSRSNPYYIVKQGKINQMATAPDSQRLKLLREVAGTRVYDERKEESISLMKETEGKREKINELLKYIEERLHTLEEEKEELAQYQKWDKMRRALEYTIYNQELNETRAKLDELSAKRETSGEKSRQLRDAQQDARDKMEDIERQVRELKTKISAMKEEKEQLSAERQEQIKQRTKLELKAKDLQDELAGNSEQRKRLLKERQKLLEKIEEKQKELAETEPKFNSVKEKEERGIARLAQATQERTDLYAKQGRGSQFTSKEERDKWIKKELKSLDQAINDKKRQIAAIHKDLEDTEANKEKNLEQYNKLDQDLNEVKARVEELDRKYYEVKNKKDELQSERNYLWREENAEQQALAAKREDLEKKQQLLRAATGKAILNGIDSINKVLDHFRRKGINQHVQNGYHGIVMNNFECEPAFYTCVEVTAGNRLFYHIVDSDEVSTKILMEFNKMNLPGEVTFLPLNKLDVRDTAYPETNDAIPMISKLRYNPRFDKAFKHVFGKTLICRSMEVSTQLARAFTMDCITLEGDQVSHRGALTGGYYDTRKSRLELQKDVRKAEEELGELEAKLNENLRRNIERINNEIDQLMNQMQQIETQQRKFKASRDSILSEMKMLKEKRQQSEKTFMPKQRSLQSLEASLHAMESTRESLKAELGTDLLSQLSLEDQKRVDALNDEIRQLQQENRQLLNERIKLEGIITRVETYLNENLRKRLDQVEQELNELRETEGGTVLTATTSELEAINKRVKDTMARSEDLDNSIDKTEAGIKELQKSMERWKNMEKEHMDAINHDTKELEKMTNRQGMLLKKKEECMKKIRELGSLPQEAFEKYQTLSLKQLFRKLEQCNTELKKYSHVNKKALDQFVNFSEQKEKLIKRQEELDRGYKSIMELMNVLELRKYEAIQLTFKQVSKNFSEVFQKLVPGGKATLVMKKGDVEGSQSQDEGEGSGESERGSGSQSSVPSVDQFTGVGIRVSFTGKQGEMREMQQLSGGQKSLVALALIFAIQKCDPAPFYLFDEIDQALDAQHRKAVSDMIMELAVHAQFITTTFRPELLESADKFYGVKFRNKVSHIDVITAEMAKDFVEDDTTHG
UniProt P53814: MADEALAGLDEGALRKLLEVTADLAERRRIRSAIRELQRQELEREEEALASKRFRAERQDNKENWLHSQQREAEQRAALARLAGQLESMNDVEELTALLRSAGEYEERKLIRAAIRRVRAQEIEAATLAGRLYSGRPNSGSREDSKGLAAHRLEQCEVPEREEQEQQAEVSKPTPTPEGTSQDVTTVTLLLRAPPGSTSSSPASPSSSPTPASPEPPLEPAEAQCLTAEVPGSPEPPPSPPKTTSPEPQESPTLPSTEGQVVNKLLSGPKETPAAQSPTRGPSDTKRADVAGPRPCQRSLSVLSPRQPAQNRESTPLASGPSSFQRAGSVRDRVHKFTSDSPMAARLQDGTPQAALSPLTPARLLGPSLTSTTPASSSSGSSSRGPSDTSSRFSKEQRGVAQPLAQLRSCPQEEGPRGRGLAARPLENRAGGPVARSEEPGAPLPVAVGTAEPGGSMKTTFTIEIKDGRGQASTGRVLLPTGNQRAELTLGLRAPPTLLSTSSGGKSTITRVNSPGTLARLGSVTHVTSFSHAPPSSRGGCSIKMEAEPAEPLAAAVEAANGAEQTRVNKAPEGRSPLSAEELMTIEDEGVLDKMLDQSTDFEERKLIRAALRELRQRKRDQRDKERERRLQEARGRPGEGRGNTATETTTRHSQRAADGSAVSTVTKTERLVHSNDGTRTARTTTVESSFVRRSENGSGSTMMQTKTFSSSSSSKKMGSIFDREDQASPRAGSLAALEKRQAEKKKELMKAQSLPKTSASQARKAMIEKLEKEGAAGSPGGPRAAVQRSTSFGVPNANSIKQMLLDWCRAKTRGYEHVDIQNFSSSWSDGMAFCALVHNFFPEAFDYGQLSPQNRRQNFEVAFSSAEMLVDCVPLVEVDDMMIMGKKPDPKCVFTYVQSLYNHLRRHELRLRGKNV
UniProt Q9NZC9: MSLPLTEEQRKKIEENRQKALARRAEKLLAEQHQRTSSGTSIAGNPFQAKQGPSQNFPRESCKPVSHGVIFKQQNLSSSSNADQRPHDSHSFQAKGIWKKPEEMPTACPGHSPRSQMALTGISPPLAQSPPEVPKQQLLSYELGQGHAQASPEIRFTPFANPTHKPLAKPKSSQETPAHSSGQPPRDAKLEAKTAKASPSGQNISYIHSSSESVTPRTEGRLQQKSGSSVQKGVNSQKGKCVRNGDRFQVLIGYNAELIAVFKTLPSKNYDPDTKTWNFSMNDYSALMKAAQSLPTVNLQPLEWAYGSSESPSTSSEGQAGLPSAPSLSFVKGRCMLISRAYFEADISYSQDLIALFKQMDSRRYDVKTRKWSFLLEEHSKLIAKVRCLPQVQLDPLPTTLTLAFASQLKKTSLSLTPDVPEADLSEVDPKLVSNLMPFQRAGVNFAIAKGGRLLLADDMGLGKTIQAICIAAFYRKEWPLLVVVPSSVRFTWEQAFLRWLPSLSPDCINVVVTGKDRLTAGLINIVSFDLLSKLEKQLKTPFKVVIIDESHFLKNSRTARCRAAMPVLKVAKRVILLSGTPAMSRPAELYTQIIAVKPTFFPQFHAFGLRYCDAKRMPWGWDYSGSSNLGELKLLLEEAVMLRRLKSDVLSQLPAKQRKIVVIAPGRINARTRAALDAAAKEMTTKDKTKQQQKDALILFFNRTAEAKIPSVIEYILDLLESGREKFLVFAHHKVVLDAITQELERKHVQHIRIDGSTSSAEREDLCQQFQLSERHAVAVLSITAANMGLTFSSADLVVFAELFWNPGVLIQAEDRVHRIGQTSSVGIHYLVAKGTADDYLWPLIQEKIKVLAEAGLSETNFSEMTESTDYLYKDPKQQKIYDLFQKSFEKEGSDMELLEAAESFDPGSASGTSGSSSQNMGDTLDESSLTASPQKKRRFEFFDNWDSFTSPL
UniProt O76070, whole entry, looked up: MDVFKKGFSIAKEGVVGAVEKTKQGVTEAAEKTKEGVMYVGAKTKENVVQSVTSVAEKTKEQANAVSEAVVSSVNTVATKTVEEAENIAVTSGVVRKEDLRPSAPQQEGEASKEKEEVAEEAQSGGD
UniProt P08621, whole entry, looked up: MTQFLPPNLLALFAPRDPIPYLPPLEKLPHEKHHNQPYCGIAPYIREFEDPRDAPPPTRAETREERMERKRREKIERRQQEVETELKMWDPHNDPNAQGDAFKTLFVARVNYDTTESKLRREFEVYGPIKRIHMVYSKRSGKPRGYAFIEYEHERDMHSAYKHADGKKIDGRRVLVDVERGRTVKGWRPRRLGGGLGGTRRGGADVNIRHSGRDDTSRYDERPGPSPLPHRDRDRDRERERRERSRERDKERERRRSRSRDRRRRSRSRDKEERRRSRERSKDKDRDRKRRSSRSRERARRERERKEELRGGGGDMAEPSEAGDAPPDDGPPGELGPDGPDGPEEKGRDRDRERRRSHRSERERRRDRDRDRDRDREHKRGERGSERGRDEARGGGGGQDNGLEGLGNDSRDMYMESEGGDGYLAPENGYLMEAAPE
UniProt Q99523, whole entry, looked up: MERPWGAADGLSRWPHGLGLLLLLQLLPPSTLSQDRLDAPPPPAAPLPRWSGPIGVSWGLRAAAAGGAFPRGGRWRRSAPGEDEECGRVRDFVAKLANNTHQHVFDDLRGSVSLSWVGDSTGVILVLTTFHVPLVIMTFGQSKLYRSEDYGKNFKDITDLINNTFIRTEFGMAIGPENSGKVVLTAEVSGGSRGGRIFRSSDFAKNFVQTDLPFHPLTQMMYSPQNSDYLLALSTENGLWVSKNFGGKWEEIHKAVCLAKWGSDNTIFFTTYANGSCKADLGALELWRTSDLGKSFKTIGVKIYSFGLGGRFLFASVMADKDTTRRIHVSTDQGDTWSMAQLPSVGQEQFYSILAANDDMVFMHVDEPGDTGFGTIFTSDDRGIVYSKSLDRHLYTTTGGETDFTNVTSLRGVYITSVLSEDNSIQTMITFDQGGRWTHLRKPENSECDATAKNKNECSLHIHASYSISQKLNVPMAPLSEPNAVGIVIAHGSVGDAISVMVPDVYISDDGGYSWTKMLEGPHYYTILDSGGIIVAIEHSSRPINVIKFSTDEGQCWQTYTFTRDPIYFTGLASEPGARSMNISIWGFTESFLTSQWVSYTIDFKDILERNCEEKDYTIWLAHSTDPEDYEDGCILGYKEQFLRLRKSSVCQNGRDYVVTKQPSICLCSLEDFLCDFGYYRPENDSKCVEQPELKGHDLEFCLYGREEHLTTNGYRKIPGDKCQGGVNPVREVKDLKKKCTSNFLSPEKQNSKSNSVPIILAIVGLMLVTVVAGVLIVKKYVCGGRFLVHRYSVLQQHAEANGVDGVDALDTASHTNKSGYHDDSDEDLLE
UniProt P62306, whole entry, looked up: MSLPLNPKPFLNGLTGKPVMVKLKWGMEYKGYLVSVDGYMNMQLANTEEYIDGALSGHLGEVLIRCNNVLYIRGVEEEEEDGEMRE
UniProt Q9BX66: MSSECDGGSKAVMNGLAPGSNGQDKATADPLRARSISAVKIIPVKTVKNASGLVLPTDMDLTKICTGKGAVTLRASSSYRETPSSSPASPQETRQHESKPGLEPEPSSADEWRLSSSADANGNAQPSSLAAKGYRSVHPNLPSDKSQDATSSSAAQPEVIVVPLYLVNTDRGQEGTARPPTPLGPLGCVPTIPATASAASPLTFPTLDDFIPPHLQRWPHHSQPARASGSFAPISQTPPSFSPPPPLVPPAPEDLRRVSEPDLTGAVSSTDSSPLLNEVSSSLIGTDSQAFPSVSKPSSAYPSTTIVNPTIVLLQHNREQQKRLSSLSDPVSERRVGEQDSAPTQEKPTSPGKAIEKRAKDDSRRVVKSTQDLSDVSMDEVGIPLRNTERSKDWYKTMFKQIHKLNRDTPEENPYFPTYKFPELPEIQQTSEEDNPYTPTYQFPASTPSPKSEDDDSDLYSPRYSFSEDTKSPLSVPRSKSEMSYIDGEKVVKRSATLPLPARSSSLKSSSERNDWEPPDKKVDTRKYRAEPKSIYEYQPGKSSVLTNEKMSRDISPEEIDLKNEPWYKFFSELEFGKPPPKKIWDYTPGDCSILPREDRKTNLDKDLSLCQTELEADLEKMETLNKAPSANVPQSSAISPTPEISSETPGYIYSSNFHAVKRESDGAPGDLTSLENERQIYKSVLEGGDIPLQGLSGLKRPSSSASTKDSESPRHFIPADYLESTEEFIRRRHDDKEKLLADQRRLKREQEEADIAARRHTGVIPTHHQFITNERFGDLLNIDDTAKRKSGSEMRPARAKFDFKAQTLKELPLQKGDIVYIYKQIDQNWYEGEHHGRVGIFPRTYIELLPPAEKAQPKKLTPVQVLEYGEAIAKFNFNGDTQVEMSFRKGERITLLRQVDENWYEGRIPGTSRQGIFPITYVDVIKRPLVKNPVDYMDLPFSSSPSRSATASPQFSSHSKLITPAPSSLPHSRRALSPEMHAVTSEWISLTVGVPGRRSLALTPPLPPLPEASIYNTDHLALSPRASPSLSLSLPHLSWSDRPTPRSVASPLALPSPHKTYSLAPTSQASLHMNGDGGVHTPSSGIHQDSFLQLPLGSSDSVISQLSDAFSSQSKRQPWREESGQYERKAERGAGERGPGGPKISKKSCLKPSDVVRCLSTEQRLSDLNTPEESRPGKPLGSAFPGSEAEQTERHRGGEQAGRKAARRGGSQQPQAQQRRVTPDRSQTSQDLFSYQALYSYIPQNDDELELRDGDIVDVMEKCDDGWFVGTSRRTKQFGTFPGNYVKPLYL
UniProt Q9Y5W9: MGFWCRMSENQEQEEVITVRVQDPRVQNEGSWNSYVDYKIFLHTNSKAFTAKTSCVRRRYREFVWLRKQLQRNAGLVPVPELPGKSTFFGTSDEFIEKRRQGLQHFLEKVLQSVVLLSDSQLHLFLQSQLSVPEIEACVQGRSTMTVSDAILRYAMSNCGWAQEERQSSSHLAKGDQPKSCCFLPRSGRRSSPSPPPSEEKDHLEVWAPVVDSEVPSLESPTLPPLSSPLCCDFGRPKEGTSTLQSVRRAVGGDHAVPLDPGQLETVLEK
UniProt P62318, whole entry, looked up: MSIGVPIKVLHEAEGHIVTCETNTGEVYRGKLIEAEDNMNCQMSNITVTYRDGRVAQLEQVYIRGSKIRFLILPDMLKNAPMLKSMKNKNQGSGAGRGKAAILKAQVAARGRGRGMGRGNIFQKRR
UniProt P62316, whole entry, looked up: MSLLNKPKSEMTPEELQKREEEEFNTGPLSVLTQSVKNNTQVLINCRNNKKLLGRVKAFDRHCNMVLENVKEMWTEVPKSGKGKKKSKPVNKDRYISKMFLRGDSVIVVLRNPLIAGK

vorinostat = compound: O=C(CCCCCCC(=O)Nc1ccccc1)NO [vorinostat]
In short: as §1

silmitasertib = compound: O=C(O)c1ccc2c(c1)nc(Nc1cccc(Cl)c1)c1ccncc12 [silmitasertib]
In short: as §1

[2] = compound: O=C1NC(=O)C(c2cnc3ccccn23)=C1c1cn2c3c(cc(F)cc13)CN(C(=O)N1CCCCC1)CC2
In short: as §1

entospletinib = compound: c1cn2cc(-c3ccc4cn[nH]c4c3)nc(Nc3ccc(N4CCOCC4)cc3)c2n1 [entospletinib]
In short: as §1

Target | log2 fold change [1] | log2 fold change (vorinostat) | log2 fold change (silmitasertib) | log2 fold change [2] | log2 fold change (entospletinib)
SMARCC2 (UniProt Q8TAQ2) | inactive: -0.026 | inactive: -0.146 | inactive: 0.003 | inactive: 0.013 | inactive: -0.019
SOGA1 isoform 2 (UniProt O94964) | inactive: -0.015 | inactive: -0.242 | inactive: 0.016 | inactive: -0.025 | inactive: -0.013
SNRNP27 (UniProt Q8WVK2) | inactive: 0.034 | inactive: 0.08 | inactive: -0.021 | inactive: -0.097 | inactive: -0.033
SMC3 (UniProt Q9UQE7) | inactive: -0.023 | inactive: 0.06 | inactive: -0.009 | inactive: -0.017 | inactive: 0.012
SMNDC1 (UniProt O75940) | inactive: 0.041 | inactive: -0.045 | inactive: -0.026 | inactive: -0.037 | inactive: -0.016
SMTN isoform 6 (UniProt P53814) | inactive: -0.021 | inactive: -0.088 | inactive: -0.007 | inactive: -0.034 | inactive: 0.013
SMG7 (UniProt Q92540) | inactive: 0.158 | inactive: -0.053 | inactive: 0.027 | inactive: -0.035 | inactive: 0.054
SMG8 isoform 2 (UniProt Q8ND04) | inactive: 0.027 | inactive: -0.166 | inactive: 0.015 | inactive: 0.004 | inactive: -0.021
SP100 isoform 4 (UniProt P23497) | inactive: -0.02 | inactive: 0.087 | inactive: 0.044 | inactive: 0.01 | inactive: -0.003
SNF8 (UniProt Q96H20) | inactive: 0.005 | inactive: 0.079 | inactive: 0.004 | inactive: -0.012 | inactive: -0.008
SMU1 (UniProt Q2TAY7) | inactive: -0.061 | inactive: 0.086 | inactive: 0 | inactive: -0.012 | inactive: -0.005
SMARCAL1 (UniProt Q9NZC9) | inactive: -0.011 | inactive: -0.211 | inactive: -0.006 | inactive: 0.005 | inactive: -0.026
SNU13 (UniProt P55769) | inactive: -0.026 | inactive: -0.022 | inactive: -0.016 | inactive: 0.001 | inactive: 0.002
SPAG9 (UniProt O60271) | inactive: 0.011 | inactive: 0.113 | inactive: -0.021 | inactive: -0.002 | inactive: -0.024
SMC5 (UniProt Q8IY18) | inactive: 0.001 | inactive: -0.05 | inactive: -0.024 | inactive: 0.007 | inactive: -0.015
SNTB2 (UniProt Q13425) | inactive: 0.058 | inactive: -0.127 | inactive: 0.083 | inactive: 0.099 | inactive: -0.044
SMC2 (UniProt O95347) | inactive: 0.014 | active: -0.308 | inactive: 0.016 | inactive: -0.01 | inactive: 0.009
SND1 (UniProt Q7KZF4) | inactive: 0.001 | active: -0.414 | inactive: 0.048 | inactive: 0.013 | inactive: 0.013
SNX9 (UniProt Q9Y5X1) | inactive: -0.01 | inactive: -0.055 | inactive: 0.014 | inactive: -0.023 | inactive: 0.004
SOX7 isoform 2 (UniProt Q9BT81) | inactive: -0.009 | inactive: -0.381 | inactive: 0.157 | – | –
SNCA (UniProt P37840) | inactive: 0.069 | inactive: 0.161 | inactive: -0.235 | inactive: -0.023 | inactive: -0.126
SNRPA1 (UniProt P09661) | inactive: 0.009 | inactive: 0.064 | inactive: 0.023 | inactive: 0.026 | inactive: 0.013
SON isoform 9 (UniProt P18583) | inactive: -0.004 | inactive: 0.043 | inactive: -0.062 | inactive: 0.037 | inactive: -0.055
SNCG (UniProt O76070) | inactive: 0.027 | inactive: 0.141 | inactive: -0.043 | inactive: -0.007 | inactive: 0.001
SNAP29 (UniProt O95721) | inactive: -0.001 | inactive: 0.122 | inactive: -0.032 | inactive: -0.046 | inactive: -0.021
SNRNP70 (UniProt P08621) | inactive: -0.029 | inactive: 0.033 | inactive: 0.004 | inactive: -0.009 | inactive: 0.022
SNAP91 (UniProt O60641) | inactive: -0.171 | inactive: 0.046 | inactive: 0.018 | inactive: -0.025 | inactive: 0.001

Target | log2 fold change [1] | log2 fold change (vorinostat) | log2 fold change (silmitasertib) | log2 fold change [2] | log2 fold change (entospletinib)
SNX3 (UniProt O60493) | inactive: -0.066 | inactive: -0.05 | inactive: 0.029 | inactive: -0.07 | inactive: -0.002
SP1 (UniProt P08047) | inactive: 0.001 | active: -0.376 | inactive: -0.045 | inactive: 0.081 | inactive: -0.006
SNX16 (UniProt P57768) | inactive: 0.085 | inactive: 0.009 | inactive: -0.07 | inactive: -0.029 | inactive: 0.029
SORT1 (UniProt Q99523) | inactive: -0.018 | inactive: 0.095 | inactive: 0.011 | inactive: -0.006 | inactive: -0.006
SNW1 (UniProt Q13573) | inactive: 0.011 | active: 0.224 | inactive: -0.003 | inactive: -0.012 | inactive: 0.009
SMARCA5 (UniProt O60264) | inactive: 0.011 | inactive: -0.06 | inactive: 0.072 | inactive: -0.021 | inactive: -0.041
SMG6 (UniProt Q86US8) | inactive: 0.119 | active: -0.3 | inactive: 0.015 | inactive: -0.012 | inactive: 0.024
SMS (UniProt P52788) | inactive: -0.035 | inactive: 0.066 | inactive: 0.007 | inactive: 0.008 | inactive: -0.012
SNX15 (UniProt Q9NRS6) | inactive: 0.002 | inactive: -0.104 | inactive: 0.03 | inactive: 0.005 | inactive: -0.02
SNRPE (UniProt P62304) | inactive: 0.063 | inactive: 0.057 | inactive: -0.033 | inactive: 0.024 | inactive: -0.034
SNRPF (UniProt P62306) | inactive: -0.019 | inactive: -0.014 | inactive: -0.001 | inactive: -0.01 | inactive: -0.016
SNX8 (UniProt Q9Y5X2) | inactive: 0.005 | inactive: 0.018 | inactive: 0.025 | inactive: 0.023 | inactive: 0.022
SNRNP40 (UniProt Q96DI7) | inactive: 0.01 | inactive: 0.233 | inactive: -0.012 | inactive: 0.022 | inactive: 0.03
SORBS1 isoform 8 (UniProt Q9BX66) | inactive: 0.002 | inactive: 0.101 | inactive: 0.014 | inactive: -0.001 | inactive: -0.037
SNX11 (UniProt Q9Y5W9) | inactive: -0.013 | inactive: 0.058 | inactive: 0.064 | inactive: 0.018 | inactive: -0.004
SNRPD3 (UniProt P62318) | inactive: -0.011 | inactive: 0.12 | inactive: -0.023 | inactive: 0.008 | inactive: -0.027
SPAG7 (UniProt O75391) | inactive: -0.031 | inactive: 0.088 | inactive: 0.017 | inactive: -0.001 | inactive: 0
SMYD5 (UniProt Q6GMV2) | inactive: 0.035 | inactive: -0.011 | inactive: -0.011 | inactive: 0.017 | inactive: 0.006
SNRPD2 (UniProt P62316) | inactive: 0 | inactive: 0.147 | inactive: -0.021 | inactive: 0.015 | inactive: 0.001
SMG5 (UniProt Q9UPR3) | inactive: 0.04 | active: -0.381 | inactive: -0.024 | inactive: 0.024 | inactive: -0.023
SMC1A (UniProt Q14683) | inactive: 0.01 | inactive: 0.052 | inactive: 0.008 | inactive: -0.016 | inactive: 0.002
SNX14 (UniProt Q9Y5W7) | inactive: -0.009 | inactive: 0.281 | inactive: -0.185 | inactive: 0.372 | inactive: -0.001
SNX4 (UniProt O95219) | inactive: 0 | inactive: 0.008 | inactive: 0.04 | inactive: 0.075 | inactive: -0.029
SNRNP200 (UniProt O75643) | inactive: 0.003 | inactive: -0.021 | inactive: 0.038 | inactive: -0.004 | inactive: 0.014
SNX17 (UniProt Q15036) | inactive: 0.055 | inactive: -0.022 | inactive: 0.003 | inactive: -0.048 | inactive: 0.008
SMYD2 (UniProt Q9NRG4) | inactive: -0.01 | inactive: -0.141 | inactive: 0.021 | inactive: 0.03 | inactive: 0.016

At a glance, some entries already given:
Target | log2 fold change [1] | log2 fold change (vorinostat) | log2 fold change (silmitasertib) | log2 fold change [2] | log2 fold change (entospletinib)
SNCG (UniProt O76070) | inactive: 0.027 | inactive: 0.141 | inactive: -0.043 | inactive: -0.007 | inactive: 0.001
SNAP29 (UniProt O95721) | inactive: -0.001 | inactive: 0.122 | inactive: -0.032 | inactive: -0.046 | inactive: -0.021
SNRNP70 (UniProt P08621) | inactive: -0.029 | inactive: 0.033 | inactive: 0.004 | inactive: -0.009 | inactive: 0.022
SNAP91 (UniProt O60641) | inactive: -0.171 | inactive: 0.046 | inactive: 0.018 | inactive: -0.025 | inactive: 0.001
SNX3 (UniProt O60493) | inactive: -0.066 | inactive: -0.05 | inactive: 0.029 | inactive: -0.07 | inactive: -0.002
SP1 (UniProt P08047) | inactive: 0.001 | active: -0.376 | inactive: -0.045 | inactive: 0.081 | inactive: -0.006
SNX16 (UniProt P57768) | inactive: 0.085 | inactive: 0.009 | inactive: -0.07 | inactive: -0.029 | inactive: 0.029
SORT1 (UniProt Q99523) | inactive: -0.018 | inactive: 0.095 | inactive: 0.011 | inactive: -0.006 | inactive: -0.006
SNW1 (UniProt Q13573) | inactive: 0.011 | active: 0.224 | inactive: -0.003 | inactive: -0.012 | inactive: 0.009
SMARCA5 (UniProt O60264) | inactive: 0.011 | inactive: -0.06 | inactive: 0.072 | inactive: -0.021 | inactive: -0.041
SMG6 (UniProt Q86US8) | inactive: 0.119 | active: -0.3 | inactive: 0.015 | inactive: -0.012 | inactive: 0.024
SMS (UniProt P52788) | inactive: -0.035 | inactive: 0.066 | inactive: 0.007 | inactive: 0.008 | inactive: -0.012
SNX15 (UniProt Q9NRS6) | inactive: 0.002 | inactive: -0.104 | inactive: 0.03 | inactive: 0.005 | inactive: -0.02
SNRPE (UniProt P62304) | inactive: 0.063 | inactive: 0.057 | inactive: -0.033 | inactive: 0.024 | inactive: -0.034

From the supplement of paper PMC10849652
